This test deals with T1, HA-FBP1 (mouse) (UniProt Q9QXD6).
T1 sequence: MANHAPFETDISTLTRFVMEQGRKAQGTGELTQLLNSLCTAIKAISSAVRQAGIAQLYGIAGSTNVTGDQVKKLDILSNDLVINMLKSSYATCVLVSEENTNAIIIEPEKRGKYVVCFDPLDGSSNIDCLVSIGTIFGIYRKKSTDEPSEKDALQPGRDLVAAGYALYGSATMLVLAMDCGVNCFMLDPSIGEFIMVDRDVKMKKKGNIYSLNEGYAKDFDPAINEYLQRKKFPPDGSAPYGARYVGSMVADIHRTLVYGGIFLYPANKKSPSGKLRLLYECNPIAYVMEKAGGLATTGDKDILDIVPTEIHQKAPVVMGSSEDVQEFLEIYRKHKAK
Nature of the test: affinity purification with mass spectrometry.

Chains of the proteins cited; added tags and fusions are not shown. Lines headed by an entry give the natural chain unless they say otherwise; changes in a name come on top.
UniProt P63330: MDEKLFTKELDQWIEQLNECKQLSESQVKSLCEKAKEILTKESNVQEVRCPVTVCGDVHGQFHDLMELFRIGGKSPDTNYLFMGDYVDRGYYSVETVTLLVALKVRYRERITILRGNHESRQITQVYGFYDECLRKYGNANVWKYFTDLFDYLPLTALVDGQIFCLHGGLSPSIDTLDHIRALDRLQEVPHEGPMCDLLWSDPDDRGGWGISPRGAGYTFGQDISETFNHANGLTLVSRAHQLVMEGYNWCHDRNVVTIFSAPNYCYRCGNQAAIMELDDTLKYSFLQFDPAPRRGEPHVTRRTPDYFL

No constants are given. Whether binding was seen depends on the method and setting. In cells and extracts the contact can be indirect. These calls come from enrichment with a bait or labelling near it, and not all partners need be listed. Tags and fused reporters may be left off the sequences shown.

With “PP2A-C (mouse liver) (from UniProt P63330) (enzyme)”, the binding entry is listed as “binds”.

B1: ALDOB (mouse liver) (enzyme, UniProt Q91Y97 1-364)
chain: MAHRFPALTPEQKKELSEIAQRIVANGKGILAADESVGTMGNRLQRIKVENTEENRRQFRELLFSVDNSISQSIGGVILFHETLYQKDSQGNLFRNVLKEKGIVVGIKLDQGGAPLAGTNKETTIQGLDGLSERCAQYKKDGVDFGKWRAVLRIADQCPSSLAIQENANALARYASICQQNGLVPIVEPEVLPDGDHDLEHCQYVSEKVLAAVYKALNDHHVYLEGTLLKPNMVTAGHACTKKYTPEQVAMATVTALHRTVPAAVPGICFLSGGMSEEDATLNLNAINRCPLPRPWKLSFSYGRALQASALAAWGGKAANKKATQEAFMKRAMANCQAAQGQYVHTGSSGAAATQSLFTASYTY
Consider B1, for which the binding result is “binds”.

The values above are taken from paper doi:10.1101/2023.03.05.531181.
